PubChem BioAssay AID686938 – Drosophila RNAi Screening Center – 2013
The deposit covers about 23,000 reagents; shown is an unselected part of those that have a named target and a result. Of all reagents, 75 (0.33%) got an active call. 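Raw plate signals without normalisation; calls rest on plate z-scores that were not deposited; ratio present for only 364 wells.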 Reagents against one gene are numbered here. No sequences are given here. Not stated in the record: the dose of the treatment.

Purpose: 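Fly genes required for calcium entry once internal stores are emptied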 (primary screen)
System: Drosophila S2R+ cells
Reagent: long dsRNA against Drosophila genes, about 0.25 µg dsRNA per well, roughly 10,000 cells
Time to read-out: 5 days of knock-down before the calcium assay
Conditions: thapsigargin (SERCA pump blocker) to empty calcium stores; entry signal taken 4 min after adding it
Measurement: 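Per-well fluo-4 fluorescence in two replicates, unnormalised, measured in resting cells and 4 min after store depletion by the SERCA blocker thapsigargin; ratio of the two present in few wells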
Scale: calcium entry signal: higher = stronger calcium signal after store depletion; resting calcium signal: higher = higher resting calcium signal
Hit rule: 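Hit if the duplicate-averaged plate z-score for entry over resting signal is under −3; wells with weak total dye signal (Fmax z < −2) or more than 5 off-targets removed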
Meaning of the calls: active = strongly reduced calcium entry; inactive = no strong reduction

With knock-down of CG34194, the screen gave calcium entry signal, replicate 1 (fluorescence units) = 3.20e7; calcium entry signal, replicate 2 (fluorescence units) = 4.84e7; resting calcium signal, replicate 1 (fluorescence units) = 1.52e7; resting calcium signal, replicate 2 (fluorescence units) = 2.00e7; inactive.
Against Semp1 (Seminal metalloprotease-1), the entry reads calcium entry signal, replicate 1 (fluorescence units) = 4.40e7; calcium entry signal, replicate 2 (fluorescence units) = 2.88e7; resting calcium signal, replicate 1 (fluorescence units) = 1.91e7; resting calcium signal, replicate 2 (fluorescence units) = 1.42e7; inactive.
Depletion of CG14223 came out at: calcium entry signal, replicate 1 (fluorescence units) = 4.12e7; calcium entry signal, replicate 2 (fluorescence units) = 3.76e7; resting calcium signal, replicate 1 (fluorescence units) = 2.33e7; resting calcium signal, replicate 2 (fluorescence units) = 1.73e7; inactive.
After knock-down of CG15450, the screen gave calcium entry signal, replicate 1 (fluorescence units) = 3.06e7; calcium entry signal, replicate 2 (fluorescence units) = 4.67e7; resting calcium signal, replicate 1 (fluorescence units) = 1.63e7; resting calcium signal, replicate 2 (fluorescence units) = 2.15e7; inactive.
Against Hr3 (Hormone receptor 3) #1, the values are calcium entry signal, replicate 1 (fluorescence units) = 3.81e7; calcium entry signal, replicate 2 (fluorescence units) = 4.11e7; resting calcium signal, replicate 1 (fluorescence units) = 1.82e7; resting calcium signal, replicate 2 (fluorescence units) = 1.66e7; inactive.
Silencing of Hr3 (Hormone receptor 3) #2 came out at: calcium entry signal, replicate 1 (fluorescence units) = 4.06e7; calcium entry signal, replicate 2 (fluorescence units) = 4.20e7; resting calcium signal, replicate 1 (fluorescence units) = 1.73e7; resting calcium signal, replicate 2 (fluorescence units) = 1.86e7; inactive.
Knock-down of HINT1 (histidine triad nucleotide binding protein 1) gave: calcium entry signal, replicate 1 (fluorescence units) = 3.76e7; calcium entry signal, replicate 2 (fluorescence units) = 4.82e7; resting calcium signal, replicate 1 (fluorescence units) = 1.65e7; resting calcium signal, replicate 2 (fluorescence units) = 1.85e7; inactive.
With knock-down of Idi (Isopentenyl-diphosphate delta isomerase), the record shows calcium entry signal, replicate 1 (fluorescence units) = 4.62e7; calcium entry signal, replicate 2 (fluorescence units) = 3.85e7; resting calcium signal, replicate 1 (fluorescence units) = 2.07e7; resting calcium signal, replicate 2 (fluorescence units) = 1.75e7; inactive.
Tao #1 scored calcium entry signal, replicate 1 (fluorescence units) = 2.88e7; calcium entry signal, replicate 2 (fluorescence units) = 9.52e7; resting calcium signal, replicate 1 (fluorescence units) = 1.41e7; resting calcium signal, replicate 2 (fluorescence units) = 4.12e7; inactive.
With knock-down of Tao #2, the record shows calcium entry signal, replicate 1 (fluorescence units) = 3.29e7; calcium entry signal, replicate 2 (fluorescence units) = 4.09e7; resting calcium signal, replicate 1 (fluorescence units) = 1.99e7; resting calcium signal, replicate 2 (fluorescence units) = 2.09e7; inactive.
After knock-down of Tao #3 the results were calcium entry signal, replicate 1 (fluorescence units) = 4.08e7; calcium entry signal, replicate 2 (fluorescence units) = 4.14e7; resting calcium signal, replicate 1 (fluorescence units) = 2.46e7; resting calcium signal, replicate 2 (fluorescence units) = 1.97e7; inactive.
CG7766 showed calcium entry signal, replicate 1 (fluorescence units) = 3.15e7; calcium entry signal, replicate 2 (fluorescence units) = 3.20e7; resting calcium signal, replicate 1 (fluorescence units) = 1.36e7; resting calcium signal, replicate 2 (fluorescence units) = 1.51e7; inactive.
Knock-down of hmw (hemingway) resulted in: calcium entry signal, replicate 1 (fluorescence units) = 4.89e7; calcium entry signal, replicate 2 (fluorescence units) = 4.40e7; resting calcium signal, replicate 1 (fluorescence units) = 2.23e7; resting calcium signal, replicate 2 (fluorescence units) = 1.82e7; inactive.
Egfrap (EGFR adaptor protein) #1 gave calcium entry signal, replicate 1 (fluorescence units) = 1.70e7; calcium entry signal, replicate 2 (fluorescence units) = 2.82e7; resting calcium signal, replicate 1 (fluorescence units) = 8.30e6; resting calcium signal, replicate 2 (fluorescence units) = 1.25e7; inactive.
Silencing of Egfrap (EGFR adaptor protein) #2 gave: calcium entry signal, replicate 1 (fluorescence units) = 1.81e7; calcium entry signal, replicate 2 (fluorescence units) = 3.10e7; resting calcium signal, replicate 1 (fluorescence units) = 8.97e6; resting calcium signal, replicate 2 (fluorescence units) = 1.42e7; inactive.

No new results follow: an excerpt of the list.
Tao #2: calcium entry signal, replicate 1 (fluorescence units) = 3.29e7; calcium entry signal, replicate 2 (fluorescence units) = 4.09e7; resting calcium signal, replicate 1 (fluorescence units) = 1.99e7; resting calcium signal, replicate 2 (fluorescence units) = 2.09e7; Outcome = inactive
Tao #3: calcium entry signal, replicate 1 (fluorescence units) = 4.08e7; calcium entry signal, replicate 2 (fluorescence units) = 4.14e7; resting calcium signal, replicate 1 (fluorescence units) = 2.46e7; resting calcium signal, replicate 2 (fluorescence units) = 1.97e7; Outcome = inactive
